Data from US20030208060A1.
No constants are given. Whether binding was seen depends on the method and setting. Binding calls can cover weak binding; strength is not graded here. For some of these results: Where a sequence is shown, tags or fusion partners need not be part of it.

Assays:
[1] = target: T1, apoB48R expressed in transfected CHO-K1 cells (human) (UniProt Q0VD83); experiment: ligand blot of detergent extracts of transfected CHO-K1, anti-apoB detection
T1 sequence: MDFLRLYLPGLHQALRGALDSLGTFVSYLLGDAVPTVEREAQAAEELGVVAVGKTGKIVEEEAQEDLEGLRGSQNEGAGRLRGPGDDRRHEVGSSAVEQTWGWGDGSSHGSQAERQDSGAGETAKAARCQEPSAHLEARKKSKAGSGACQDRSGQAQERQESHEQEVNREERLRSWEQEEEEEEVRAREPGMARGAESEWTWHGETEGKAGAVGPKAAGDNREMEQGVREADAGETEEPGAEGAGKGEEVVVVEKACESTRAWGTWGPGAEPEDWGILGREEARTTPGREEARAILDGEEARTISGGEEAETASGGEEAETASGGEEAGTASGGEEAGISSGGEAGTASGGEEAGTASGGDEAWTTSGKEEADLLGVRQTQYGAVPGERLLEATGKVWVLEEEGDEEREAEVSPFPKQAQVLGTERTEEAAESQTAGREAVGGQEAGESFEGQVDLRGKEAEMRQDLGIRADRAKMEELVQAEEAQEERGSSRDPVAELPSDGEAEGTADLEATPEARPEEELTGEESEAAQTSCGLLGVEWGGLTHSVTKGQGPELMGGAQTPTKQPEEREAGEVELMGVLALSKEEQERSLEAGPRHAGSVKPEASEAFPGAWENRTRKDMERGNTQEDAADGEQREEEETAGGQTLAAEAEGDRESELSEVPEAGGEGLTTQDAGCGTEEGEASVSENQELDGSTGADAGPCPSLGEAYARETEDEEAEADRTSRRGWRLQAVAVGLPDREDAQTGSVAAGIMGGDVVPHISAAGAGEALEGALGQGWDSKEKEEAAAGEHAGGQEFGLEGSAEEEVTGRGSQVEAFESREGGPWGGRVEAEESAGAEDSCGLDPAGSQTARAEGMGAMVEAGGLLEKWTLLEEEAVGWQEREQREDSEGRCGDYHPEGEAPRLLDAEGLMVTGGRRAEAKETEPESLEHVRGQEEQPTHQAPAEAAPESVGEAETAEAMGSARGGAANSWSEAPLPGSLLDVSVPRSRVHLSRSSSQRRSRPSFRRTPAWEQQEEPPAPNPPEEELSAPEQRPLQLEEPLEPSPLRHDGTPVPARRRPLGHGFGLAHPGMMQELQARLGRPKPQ

[2] = target: T2, MBP200 (membrane binding protein of ~200 kDa; human monocyte-macrophage apoB48 receptor, apoB48R) (human) (UniProt Q0VD83); experiment: ligand blot
T2 sequence: T1 sequence

[3] = target: T1, apoB48R expressed in transfected CHO-K1 cells (human); experiment: ligand blot of R-transfected CHO cells

binding [1]	binding [2]	binding [3]	Substance
binds	binds	binds	trypsinized VLDL Sf100-400, devoid of apoE (tryp-VLDL) (human)
–	binds	–	hypertriglyceridemic very low density lipoprotein Sf100-400 (HTG-VLDL) (human)
